# Test results published in PubChem BioAssay AID504834 (National Center for Advancing Translational Sciences (NCATS), 2011).
# The campaign covered roughly 320,000 compounds. About 22,000 (6.9%) were called active. This list was built around the results that the source calls inconclusive (neither active nor inactive); the mix of calls is not that of the screen. Calls come from the whole dose curve; as a rule, active = well fitted inhibition curve with a large enough effect; inconclusive = small, poorly fitted or top-dose-only effect, or another doubt; inactive = no such curve, though single readings can be large or run the other way. A potency beside an inconclusive call is a rough fit, not a confirmed value.
# Assay: Primary qHTS for delayed death inhibitors of the malarial parasite plastid, 96 hour incubation
# Conditions: P. falciparum luciferase reporter growth; series mostly up to 28.7 µM; activity change, negative = inhibition: at the top concentration
# Procedure, shortened: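 96 h incubation, 37 C, 5% CO2, of luciferase-reporter P. falciparum-infected RBCs (2% hematocrit, 0.05% parasitemia final) with test compounds; endpoint luminescence.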
# % is set by controls: 0 for no effect and ±100 for the full control effect; potency is the fitted concentration of half-maximal effect.
SMILES,Potency,"activity change, negative = inhibition"
COc1ccc(C2CC(=O)c3cnc(NC(=O)c4ccccc4)nc3C2)c(OC)c1 (centres undefined),"inconclusive: 10.4 µM [inhibitor, partial curve, poor fit]",
Cc1ccc(S(=O)(=O)CCC(=O)c2ccc(F)cc2)cc1,,inactive: 65.8%
CCC(C)n1c(SCC(=O)Nc2cc(C(C)(C)C)nn2-c2ccccc2)nc2ccccc2c1=O (centres undefined),active: 5.86 µM,
CCOC(=O)c1[nH]ncc1CN1CCCC(C(=O)c2ccc(SC)cc2)C1 (centres undefined),"inconclusive: 16.5 µM [inhibitor, single point]",
Cc1ccc(S(=O)(=O)Nc2c(C)n(C)n(-c3ccccc3)c2=O)cc1C(=O)NCc1ccccc1,"inconclusive: 3.29 µM [inhibitor, full curve]",
CN(C(=O)COC(=O)CSc1ccc(C(N)=O)cc1[N+](=O)[O-])C1CCS(=O)(=O)C1 (centres undefined),,inactive: -15.1%
O=C(c1c(F)c(F)c(F)c(F)c1F)N(Cc1ccccc1)Cc1ccccc1,"inconclusive: 0.0329 µM [inhibitor, full curve, poor fit]",
O=C(Cc1c(C(=O)O)[nH]c2ccccc12)Nc1ccc2c(c1)OCO2,active: 13.1 µM,
COc1ccc(F)cc1CN1CCN(CC(=O)N2CCc3ccccc32)CC1,"inconclusive: 7.38 µM [inhibitor, partial curve, poor fit]",
CN1/C(=C\C(=O)COC(=O)c2ccc([N+](=O)[O-])o2)C(C)(C)c2ccccc21,active: 13.1 µM,
Cn1c(CN2CCCCC2)c(C#N)c2ccccc21,,inactive: 120%
NC(=S)N/N=C/c1ccc(OC(=O)c2cccnc2)cc1,"inconclusive: 9.28 µM [inhibitor, partial curve]",
O=C(NC1CCCc2ccccc21)c1cncc(Br)c1 (centres undefined),"inconclusive: 18.5 µM [inhibitor, single point]",
CCOC(=O)C1=C(N)n2c(s/c(=C\c3cccnc3)c2=O)=C(C(=O)OCC)C1c1cccnc1 (centres undefined),"inconclusive: 1.04 µM [inhibitor, full curve, poor fit]",
CCCCOC(=O)c1ccccc1C(=O)OCCCC,,inactive: -9.92%
CCn1c(SCC(=O)Nc2cc(C)on2)nnc1-c1c[nH]c2ccccc12,"inconclusive: 4.65 µM [inhibitor, partial curve, poor fit]",
CCC(Sc1nc2ccccc2s1)C(=O)Nc1cc(C)on1 (centres undefined),"inconclusive: 11.7 µM [inhibitor, single point]",
Cc1ccc(C(=O)N/N=C\c2ccc([N+](=O)[O-])s2)cn1,active: 0.329 µM,
CCN(CCCNC(=O)CCc1nc(-c2ccc(C)cc2)no1)c1cccc(C)c1,"inconclusive: 11.7 µM [inhibitor, single point]",
COc1ccc(/C=N/N=C(\N)c2nonc2N)cc1OC,"inconclusive: 5.22 µM [inhibitor, partial curve, poor fit]",
COC(CNC(=O)c1ccc(N2CCCC2=O)cc1)OC,"inconclusive: 18.5 µM [inhibitor, single point]",
CCCN(CC(=O)Nc1ccccc1C)C(=O)C1CCCN(C(=O)c2ccc(Cl)cc2)C1 (centres undefined),"inconclusive: 9.28 µM [inhibitor, single point]",
CCC(=O)N1CCc2cc(Br)cc(S(=O)(=O)CCC(=O)NCC3CCCO3)c21 (centres undefined),"inconclusive: 0.465 µM [inhibitor, full curve, poor fit]",

# Single values from the list.
# Entry for `O=C(NC1CCCc2ccccc21)c1cncc(Br)c1` (centres undefined) under Potency: inconclusive: 18.5 µM [inhibitor, single point]
# Entry for `CCN(CCCNC(=O)CCc1nc(-c2ccc(C)cc2)no1)c1cccc(C)c1` under Potency: inconclusive: 11.7 µM [inhibitor, single point]
# Entry for `Cc1ccc(S(=O)(=O)Nc2c(C)n(C)n(-c3ccccc3)c2=O)cc1C(=O)NCc1ccccc1` under Potency: inconclusive: 3.29 µM [inhibitor, full curve]

# (continued)

SMILES,Potency,"activity change, negative = inhibition"
Cc1ccc(S(=O)(=O)N2CCC(CN3C(=O)c4cccc5cccc(c45)C3=O)CC2)cc1,"inconclusive: 16.5 µM [inhibitor, single point]",
Cc1nc(C(F)(F)F)ccc1C(=O)Nc1ccccc1F,"inconclusive: 11.7 µM [inhibitor, single point]",
Cc1nnc(N2CCC(C(=O)NC3CCC(C)CC3)CC2)c2nn(-c3ccc(Cl)cc3)c(C)c12 (centres undefined),"inconclusive: 1.04 µM [inhibitor, partial curve]",
Cc1ccc(C(=O)CN2C(=O)NC3(CCOc4ccccc43)C2=O)s1 (centres undefined),"inconclusive: 11.7 µM [inhibitor, single point]",
CCOC(=O)N1CCC(NS(=O)(=O)c2ccc(C#N)cc2)CC1,,inactive: 13.7%
O=C(C1=C[C@H](c2ccc(C(F)(F)F)cc2)C[C@H](OCCCCO)O1)N1CCN(Cc2ccc3c(c2)OCO3)CC1,active: 3.7 µM,
CCOC(=O)c1c(C)[nH]c(C(=O)CSc2nc3ccccc3o2)c1C,,inactive: -0.367%
COc1ccc(Cl)cc1NC(=O)/C=C/C(=O)O,"inconclusive: 18.5 µM [inhibitor, single point]",
CN(C)CCOC(=O)C12CC3CC(C1)CC(C(=O)OCCN(C)C)(C3)C2,,inactive: 98.3%
Cc1cccc(Cc2ncc(C(F)(F)F)cc2Cl)c1,,inactive: 22.2%
COCC(=O)n1nc(-c2ccc(Cl)cc2)nc1NCc1ccc(F)cc1,active: 2.94 µM,
Cc1nnc2c(NCCc3ccccc3)nc3ccccc3n12,"inconclusive: 18.5 µM [inhibitor, single point]",
CCNC(=O)O/N=C(\C)c1sc(-c2ccccc2)nc1C,"inconclusive: 10.4 µM [inhibitor, partial curve, poor fit]",
Cc1cccc(CCNC(=O)C2CCN(S(=O)(=O)c3ccccc3)CC2)c1,"inconclusive: 16.5 µM [inhibitor, single point]",
CC(=O)NCC(=O)N1CCCC(C(=O)c2ccc(-c3ccccc3)c(F)c2)C1 (centres undefined),"inconclusive: 18.5 µM [inhibitor, single point]",
Cc1ccc(N2CC(C(=O)Nc3cccnc3)CC2=O)cc1 (centres undefined),"inconclusive: 18.5 µM [inhibitor, single point]",
Cc1c(C(=O)NCCn2ccc3ccccc32)cccc1[N+](=O)[O-],"inconclusive: 10.4 µM [inhibitor, single point]",
FC(F)(F)c1cccc(Nc2nc(N3CCCC3)nc(N3CCCC3)n2)c1,"inconclusive: 4.65 µM [inhibitor, partial curve]",
CN1CCN(C(c2ccc(Cl)cc2)c2cc(Cl)c3cccnc3c2O)CC1 (centres undefined),"inconclusive: 4.65 µM [inhibitor, partial curve]",
O=C(CN1CCc2ccccc21)NC(=O)NCc1ccco1,,inactive: 2.08%
Cc1cc(C)n(-c2ccc(C(=O)Nc3ccccc3N3CCOCC3)cc2)n1,"inconclusive: 14.7 µM [inhibitor, partial curve, poor fit]",
Cc1cc(NC(=O)CN2C(=O)CCSc3ccccc32)no1,"inconclusive: 1.04 µM [inhibitor, partial curve]",
CCCOc1ccc(NC(=O)CC2C(=O)N(CC)C(=S)N2Cc2cccs2)cc1 (centres undefined),"inconclusive: 20.8 µM [inhibitor, partial curve, poor fit]",

SMILES,Potency,"activity change, negative = inhibition"
CCOC(=O)c1sc2nc(CC(=O)OC)nc(NCc3ccc(Cl)cc3)c2c1C,"inconclusive: 8.28 µM [inhibitor, partial curve, poor fit]",
Cc1cc(=O)[nH]c(SCC(=O)OCc2ccccc2)c1C#N,"inconclusive: 2.08 µM [inhibitor, full curve, poor fit]",
COC(=O)/C=C1\NCCNC1=O,,inactive: 21.6%
O=C(Nc1cccnc1)C1CCN(S(=O)(=O)c2cccc3nonc23)CC1,"inconclusive: 0.262 µM [inhibitor, full curve, poor fit]",
N#CC(=C1CCCC1)c1nc(-c2cc3ccccc3oc2=O)cs1,,inactive: 245%
CC/C(=N\NC(=O)c1c(C)nc2ccccn12)c1ccccc1,"inconclusive: 0.586 µM [inhibitor, partial curve, poor fit]",
Cc1csc(NC(=O)CSc2nc3[nH]ncc3c(=O)[nH]2)n1,"inconclusive: 0.586 µM [inhibitor, full curve, poor fit]",
CCOc1ncccc1C(=O)OCc1c(F)cccc1Cl,,inactive: 8.5%
CCSc1nnc(COc2ccccc2)n1CC,,inactive: 18.6%
CCOc1ccc2nc(NC(=O)c3cc([N+](=O)[O-])ccc3N3CCOCC3)sc2c1,"inconclusive: 1.65 µM [inhibitor, full curve, poor fit]",
C=CCOC(=O)C1=C(C)NC(SC)=C(C#N)C1c1ccc(OCC)cc1 (centres undefined),active: 11.7 µM,
O=C(Cc1ccc(F)cc1)N1CCN=C1SCc1ccc([N+](=O)[O-])cc1,"inconclusive: 10.4 µM [inhibitor, single point]",
O=C(CN1C(=O)NC2(CCCc3ccccc32)C1=O)Nc1ccccc1OC(F)F (centres undefined),"inconclusive: 0.0026 µM [inhibitor, full curve, poor fit]",
S=C(NCc1ccccc1)NCc1ccccc1,"inconclusive: 18.5 µM [inhibitor, single point]",
COc1cccc(CN2CC=C(c3ccc(F)cc3)CC2)c1,"inconclusive: 11.7 µM [inhibitor, single point]",
Cc1cc(C)cc(C(=O)Nc2ccc(N3CCN(C(=O)c4ccco4)CC3)cc2)c1,"inconclusive: 18.5 µM [inhibitor, single point]",
O=C(O)COc1ccccc1C(Nc1cccnc1)c1cc(Cl)c2cccnc2c1O (centres undefined),,inactive: 1.22%
COc1ccc(Cl)cc1S(=O)(=O)n1ccnc1C(C)C,,inactive: 39.6%
CC(CN1CCOCC1)OC(=O)Cc1ccc(Cl)cc1 (centres undefined),"inconclusive: 0.262 µM [inhibitor, full curve, poor fit]",
Cc1ccc(NC(=O)CSc2nnc(Cc3ccccc3)o2)cc1,active: 11.7 µM,
CCOC(=O)c1nc(S(C)(=O)=O)ncc1N1CCOCC1,,inactive: -15.5%
CCOC(=O)C1(Cc2ccccc2)CCCN(CCCn2cccn2)C1 (centres undefined),,inactive: 0%
Cn1c(Cn2c(=O)sc3ccccc32)nnc1SCC(=O)Nc1cccc(Cl)c1,"inconclusive: 1.04 µM [inhibitor, full curve, poor fit]",
